# Results deposited as PubChem BioAssay AID1259405 (NCATS, 2018)
# Assay: 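Knock-downs that lift recombinant protein yield in hamster ovary cells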 (primary screen)
# Cells: Chinese hamster CHO-K1 ovary cells with stable secreted eGFP expression
# Reagents: single siRNA against mouse genes, 0.8 pmol siRNA per well (2 µl of 400 nM stock)
# Timing: 3 days
# Detection: 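Per-well intracellular GFP measured by laser scanning cytometry, plus viability from ATP luminescence, each relative to plate median of non-targeting control wells, in %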
# Reading the numbers: GFP, % of control: higher = more GFP per well, higher productivity; viability (ATP), % of control: higher = more viable cells (more ATP)
# Call rule: 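a knock-down is called active if GFP reaches 120% or more of non-targeting control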
# In all, the deposit lists about 50,000 reagents; shown is a part drawn at random. In the full data, about 4,000 (8%) are marked active. 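Mouse siRNA library applied to hamster cells; one well for each siRNA.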 Entries without a mark were called inactive. Reagents against one gene are numbered here.
target,siRNA no.,"GFP, % of control","viability (ATP), % of control"
Vmn1r27 (GeneID 171206),1,66.1,73.5
Vmn1r27 (GeneID 171206),2,37.6,55.5
Vmn1r27 (GeneID 171206),3,83.7,89.6
Neil1 (GeneID 72774),1,72.5,94
Neil1 (GeneID 72774),2,113,81.7
Neil1 (GeneID 72774),3,63,87.6
Mex3b (GeneID 108797),1,45.8,36.1
Mex3b (GeneID 108797),2,60.8,67.3
Mex3b (GeneID 108797),3,80.1,85.4
Zfp638 (GeneID 18139),1,136 (active),58.4
Zfp638 (GeneID 18139),2,75.9,74.4
Zfp638 (GeneID 18139),3,51.2,41.3
Rps6 (GeneID 20104),1,28.7,18.8
Rps6 (GeneID 20104),2,94.2,68.3
Rps6 (GeneID 20104),3,39.7,40.9
Lhcgr (GeneID 16867),1,120 (active),80.9
Lhcgr (GeneID 16867),2,87.5,57.9
Lhcgr (GeneID 16867),3,71.8,76.8
Defb7 (GeneID 246080),1,77.4,85.3
Defb7 (GeneID 246080),2,126 (active),71.7
Defb7 (GeneID 246080),3,142 (active),70.6
Als2cl (GeneID 235633),1,80.5,77.8
Als2cl (GeneID 235633),2,73.4,89.8
Als2cl (GeneID 235633),3,76.8,86.2
Pxmp4 (GeneID 59038),1,125 (active),87.4
Pxmp4 (GeneID 59038),2,45.7,71.2
Pxmp4 (GeneID 59038),3,56.6,78.4
Dcaf12l1 (GeneID 245404),1,67.8,54.8
Dcaf12l1 (GeneID 245404),2,84.7,83.6
Dcaf12l1 (GeneID 245404),3,92.6,103
Upk1a (GeneID 109637),1,10.9,9.76
Upk1a (GeneID 109637),2,139 (active),70.7
Upk1a (GeneID 109637),3,108,95.3
Zfp352 (GeneID 236537),1,86.2,53.8
Zfp352 (GeneID 236537),2,75.5,87.6
Zfp352 (GeneID 236537),3,58.2,75.5
Tut7 (GeneID 214290),1,83.1,72.3
Tut7 (GeneID 214290),2,93.4,82.1
Tut7 (GeneID 214290),3,78.9,101
A530013C23Rik (GeneID 329562),1,86.7,102
A530013C23Rik (GeneID 329562),2,58.9,57.7
A530013C23Rik (GeneID 329562),3,94.9,99.3
Cox6b1 (GeneID 110323),1,102,64.7
Cox6b1 (GeneID 110323),2,86.3,48.8
Cox6b1 (GeneID 110323),3,64.8,60.8
Lce1a1 (GeneID 67127),1,61.3,62
Lce1a1 (GeneID 67127),2,126 (active),114
Lce1a1 (GeneID 67127),3,94.7,99.6
Zfp423 (GeneID 94187),1,57.1,51.8
Zfp423 (GeneID 94187),2,61.9,66.4
Zfp423 (GeneID 94187),3,33.1,50.2
Rogdi (GeneID 66049),1,239 (active),82
Rogdi (GeneID 66049),2,74.8,82.7
Rogdi (GeneID 66049),3,95,75.9
Rogdi (GeneID 66049),4,113,89.9
Rogdi (GeneID 66049),5,103,106
Rogdi (GeneID 66049),6,70.2,103
Gdf5 (GeneID 14563),1,98.2,70.2
Gdf5 (GeneID 14563),2,121 (active),99.8
Gdf5 (GeneID 14563),3,84.2,109
Ube2j1 (GeneID 56228),1,63,65.7
Ube2j1 (GeneID 56228),2,108,120
Ube2j1 (GeneID 56228),3,46.7,80.1
Vsig2 (GeneID 57276),1,69.9,90.8
Vsig2 (GeneID 57276),2,59.5,78.9
Vsig2 (GeneID 57276),3,65.6,101
Etv5 (GeneID 104156),1,64,64.4
Etv5 (GeneID 104156),2,99.9,86.4
Ybx1 (GeneID 22608),1,45.2,67.8
Ybx1 (GeneID 22608),2,83.4,87
Ybx1 (GeneID 22608),3,39.8,44.5
Uimc1 (GeneID 20184),1,58,41.5
Uimc1 (GeneID 20184),2,43.7,50.7
Uimc1 (GeneID 20184),3,55.7,82.4
Syt14 (GeneID 329324),1,93.1,108
Syt14 (GeneID 329324),2,69.2,85.8
Irx2 (GeneID 16372),1,78.6,84.9
Irx2 (GeneID 16372),2,84.2,92.9
Irx2 (GeneID 16372),3,100,111
Gtf2ird1 (GeneID 57080),1,57.5,77.6
Gtf2ird1 (GeneID 57080),2,89,83.8
Ccdc184 (GeneID 239650),1,32.3,41.4
Ccdc184 (GeneID 239650),2,37.5,55.1
Ccdc184 (GeneID 239650),3,37.5,40.9

12 consecutive records from above, for reference:
target,siRNA no.,"GFP, % of control","viability (ATP), % of control"
Cox6b1 (GeneID 110323),1,102,64.7
Cox6b1 (GeneID 110323),2,86.3,48.8
Cox6b1 (GeneID 110323),3,64.8,60.8
Lce1a1 (GeneID 67127),1,61.3,62
Lce1a1 (GeneID 67127),2,126 (active),114
Lce1a1 (GeneID 67127),3,94.7,99.6
Zfp423 (GeneID 94187),1,57.1,51.8
Zfp423 (GeneID 94187),2,61.9,66.4
Zfp423 (GeneID 94187),3,33.1,50.2
Rogdi (GeneID 66049),1,239 (active),82
Rogdi (GeneID 66049),2,74.8,82.7
Rogdi (GeneID 66049),3,95,75.9
